Assay results from publication doi:10.1101/2022.01.03.474785.
Results are given in words; binding and its absence hold for the method and conditions named. Binding seen in cells or lysates may run through a third protein. Some entries that bind do so weakly or less than the wild type. Where a sequence is shown, tags or fusion partners need not be part of it. Values belong to the binder of their own block, whether it stands above or below them.

Tests used:
[1] = target: T1, Snf7-6His (yeast), P39929; assay: pull-down; conditions: remark: other sources report otherwise
T1 chain: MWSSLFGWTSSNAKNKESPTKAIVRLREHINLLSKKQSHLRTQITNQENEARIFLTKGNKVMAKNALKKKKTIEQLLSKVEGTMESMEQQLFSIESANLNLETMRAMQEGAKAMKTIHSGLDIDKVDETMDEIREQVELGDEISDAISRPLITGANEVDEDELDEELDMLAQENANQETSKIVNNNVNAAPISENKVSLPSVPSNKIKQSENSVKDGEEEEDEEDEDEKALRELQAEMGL

sfGFP-Vps68 (yeast) = target: T2, sfGFP-Vps68 (yeast) (UniProt Q12016); assay: co-IP
T2 sequence: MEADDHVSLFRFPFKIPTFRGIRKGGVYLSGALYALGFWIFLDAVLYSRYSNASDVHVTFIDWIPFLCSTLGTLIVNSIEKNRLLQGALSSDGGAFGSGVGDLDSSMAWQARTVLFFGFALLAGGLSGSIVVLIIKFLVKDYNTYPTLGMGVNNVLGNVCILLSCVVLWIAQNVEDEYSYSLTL

B2: Vps24, P36095 1-224 (protein)
chain: MDYIKKAIWGPDPKEQQRRIRSVLRKNGRNIEKSLRELTVLQNKTQQLIKKSAKKNDVRTVRLYAKELYQINKQYDRMYTSRAQLDSVRMKIDEAIRMNTLSNQMADSAGLMREVNSLVRLPQLRNTMIELEKELMKSGIISEMVDDTMESVGDVGEEMDEAVDEEVNKIVEQYTNEKFKNVDQVPTVELAANEEEQEIPDEKVDEEADRMVNEMRERLRALQN
- binding [1]: no binding

B4: Snf7 (protein, UniProt P39929 1-240)
chain: T1 chain
- binding (sfGFP-Vps68 (yeast)): binds

Further lines, results first:

- binding [1]: no binding
B1: Vps2, P36108 1-232 (protein)
chain: MSLFEWVFGKNVTPQERLKKNQRALERTQRELEREKRKLELQDKKLVSEIKKSAKNGQVAAAKVQAKDLVRTRNYIQKFDNMKAQLQAISLRIQAVRSSDQMTRSMSEATGLLAGMNRTMNLPQLQRISMEFEKQSDLMGQRQEFMDEAIDNVMGDEVDEDEEADEIVNKVLDEIGVDLNSQLQSTPQNLVSNAPIAETAMGIPEPIGAGSEFHGNPDDDLQARLNTLKKQT

- binding [1]: no binding
B3: Did2, P69771 1-204 (protein)
chain: MSRNSAAGLENTLFQLKFTSKQLQKQANKASKEEKQETNKLKRALNENEDISRIYASNAIRKKNERLQLLKLASRVDSVASRVQTAVTMRQVSASMGQVCKGMDKALQNMNLQQITMIMDKFEQQFEDLDTSVNVYEDMGVNSDAMLVDNDKVDELMSKVADENGMELKQSAKLDNVPEIKAKEVNVDDEKEDKLAQRLRALRG
